The list is a part of this screen's results and no random one: it is rich in T/C values a quarter to a half above the control, in often repeated tests (any T/C) and in doses without a T/C. Further doses and runs are listed elsewhere. T/C is the treated group as % of the vehicle group. Some entries give survivors of the animals treated and no T/C: the source holds a T/C of zero for them, seemingly a mark for toxic or unscored doses. Some survivor counts are full or nearly so, which does not show that the dose was tolerated: the source hardly ever lists a survival T/C far under the control, and the zero likely stands for such cases as well. Survivors were counted at the toxicity check, usually on the fifth day, unless a day is given; later deaths do not show. Schedules are NCI's codes, taken here to give the interval after Q, in days (D) or hours (H), and the number of doses after X. Some entries were tested several times; their values stand side by side, smallest first. Where survival is the endpoint, this PubChem deposit counts one and a half times the control or more as active, and values a quarter to a half above the control carry no call in these data; other NCI protocols may use other cut-offs. Some T/C values are followed by the survivors on the day toxicity was checked, most often the fifth; where none is given, no animal had died by that day.

In this assay the test system is CD2F1 mice, L1210 leukemia ip, survival T/C. Kind of assay: NCI In Vivo Anticancer Drug Screen. Data for tumor model L1210 Leukemia (intraperitoneal) in CD2F1 (CDF1) mice. To be noted: higher T/C = longer survival. The essentials:
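Each value reflects a quotient of treated over vehicle control outcomes in mice with a transplanted tumor.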

[1] abbreviates: T/C endpoint: mean survival time, dose: 200.0 mg/kg/injection, schedule: Q01DX009 (ip), vehicle: saline with Tween-80.
Setting [2] is: T/C endpoint: mean survival time, dose: 200.0 mg/kg/injection, schedule: Q01DX009 (ip), vehicle: saline.
The mark [3] stands for this setting: T/C endpoint: mean survival time, dose: 400.0 mg/kg/injection, schedule: Q01DX001 (ip), vehicle: saline with Tween-80.
The mark [4] stands for this setting: T/C endpoint: mean survival time, dose: 100.0 mg/kg/injection, schedule: Q01DX009 (ip), vehicle: water.
Setting [5] is: T/C endpoint: median survival time, dose: 200.0 mg/kg/injection, schedule: Q01DX005 (ip), vehicle: water.
Where [6] appears, read: T/C endpoint: mean survival time, dose: 100.0 mg/kg/injection, schedule: Q04DX003 (ip), vehicle: saline with Tween-80.
Where [7] appears, read: T/C endpoint: mean survival time, dose: 200.0 mg/kg/injection, schedule: Q04DX003 (ip), vehicle: saline with Tween-80.
Setting [8] is: T/C endpoint: mean survival time, dose: 400.0 mg/kg/injection, schedule: Q04DX003 (ip), vehicle: saline with Tween-80.
Where [9] appears, read: T/C endpoint: mean survival time, dose: 50.0 mg/kg/injection, schedule: Q01DX009 (ip), vehicle: saline with Tween-80.
[10] abbreviates: T/C endpoint: mean survival time, dose: 400.0 mg/kg/injection, schedule: Q01DX009 (ip), vehicle: saline with Tween-80.
Where [11] appears, read: T/C endpoint: mean survival time, dose: 400.0 mg/kg/injection, schedule: Q04DX003 (ip), vehicle: saline sonified.

For the compound `CCOC(=O)C(C)(Br)C(=O)OCC`, the survivor count under setting [1] is given as 2 of 6.
In the case of `C[n+]1c(/C=N/NC(N)=S)ccc2ccccc21`, under “T/C endpoint: median survival time, dose: 200.0 mg/kg/injection, schedule: Q01DX009 (ip), vehicle: saline with Tween-80”, the survivor count is 6 of 6.
For the compound `C[n+]1cccc(CCc2ccc[n+](C)c2)c1`, the survivor count under setting [2] is 0 of 3.
Take `COC1=[C]([Hg][Br])C(OC)OC1OC` (centres undefined): the survivor count is reported as 0 of 6 (T/C endpoint: mean survival time, dose: 100.0 mg/kg/injection, schedule: Q01DX001 (ip), vehicle: saline with Tween-80); 0 of 6 (T/C endpoint: mean survival time, dose: 200.0 mg/kg/injection, schedule: Q01DX001 (ip), vehicle: saline with Tween-80); 0 of 6 under setting [3].
Consider `O=C(Nc1cc(Cl)ccc1C(=O)O)c1cccc(C[n+]2ccccc2)c1`, for which the survivor count (T/C endpoint: median survival time, dose: 800.0 mg/kg/injection, schedule: Q01DX005 (ip), vehicle: saline with Tween-80) is 0 of 6.
On to `CCN(CC)c1cccc(O)c1`, for which, under setting [1], the survivor count is reported as 4 of 6.
On to `CC1(C)N=C(N)N=C(N)N1c1ccc(CCC(=O)Nc2ccc(S(=O)(=O)F)cc2)c(Cl)c1`, for which the T/C is, setting by setting: (T/C endpoint: mean survival time, dose: 25.0 mg/kg/injection, schedule: Q01DX009 (ip), vehicle: saline) 129 % of control; (T/C endpoint: mean survival time, dose: 50.0 mg/kg/injection, schedule: Q01DX009 (ip), vehicle: water) 125 % of control. For the same compound, under setting [4], the survivor count was 0 of 6.
Turning to `Cc1c(O)/c(=C\O)c2nc3c(=O)ccc(C(=O)NCCN(C)C)c3[nH]c2c1=O`, the T/C (T/C endpoint: median survival time, dose: 30.0 mg/kg/injection, schedule: Q01DX005 (ip), vehicle: water) was 125 % of control; the T/C (T/C endpoint: median survival time, dose: 50.0 mg/kg/injection, schedule: Q01DX005 (ip), vehicle: water) was 128, 135, 145 % of control; the T/C (T/C endpoint: median survival time, dose: 83.3 mg/kg/injection, schedule: Q01DX005 (ip), vehicle: water) is 136 % of control; the T/C (T/C endpoint: median survival time, dose: 100.0 mg/kg/injection, schedule: Q01DX005 (ip), vehicle: water) was 130 and 147 % of control; the T/C (T/C endpoint: median survival time, dose: 138.88 mg/kg/injection, schedule: Q01DX005 (ip), vehicle: water) was 135 % of control. Besides, the survivor count under setting [5] is 3 of 6 and 6 of 6.
In the case of `N#CC12CC3CC(CC(C3)C1)C2`, the survivor count under setting [6] was 0 of 6, the survivor count under setting [7] is recorded as 0 of 6 and the survivor count under setting [8] is on record as 0 of 6.
Regarding `CCCCC(C)C1(CCC)NC(C)(C)CC(C)O1` (centres undefined), the survivor count under setting [3] is given as 1 of 6.
As to `N#CC1C(=O)NC(O)(c2ccccc2)C1c1ccccc1` (centres undefined), the survivor count is, setting by setting: under setting [7], 3 of 3; under setting [8], 1 of 3.
Consider `O=Cc1cc([N+](=O)[O-])cc(CCl)c1O`, for which the survivor count (T/C endpoint: mean survival time, dose: 200.0 mg/kg/injection, schedule: Q01DX009 (ip), vehicle: Klucel (hydroxypropylcellulose) (HPC)) was 1 of 6.
For `CCOc1ccc2ccccc2c1C(=O)N(CCCl)CCCl`, the survivor count runs as follows: under setting [9], 6 of 6; (T/C endpoint: mean survival time, dose: 100.0 mg/kg/injection, schedule: Q01DX009 (ip), vehicle: saline with Tween-80) 5 of 6; under setting [1], 1 of 6; under setting [10], 0 of 6.
As to `O=c1n[n+]([O-])ccn1C1OC(CO)C(O)C1O` (centres undefined), the T/C by setting is: (T/C endpoint: mean survival time, dose: 100.0 mg/kg/injection, schedule: Q01DX009 (ip), vehicle: saline) 134 % of control; under setting [2], 129, 130, 137, 139 % of control; (T/C endpoint: mean survival time, dose: 300.0 mg/kg/injection, schedule: Q01DX009 (ip), vehicle: saline) 125 % of control; (T/C endpoint: mean survival time, dose: 400.0 mg/kg/injection, schedule: Q01DX009 (ip), vehicle: saline) 125 [4 of 6 alive] and 139 % of control; (T/C endpoint: mean survival time, dose: 450.0 mg/kg/injection, schedule: Q01DX009 (ip), vehicle: saline) 144 % of control; (T/C endpoint: median survival time, dose: 88.0 mg/kg/injection, schedule: Q01DX009 (ip), vehicle: saline) 125 % of control. Besides, the T/C (T/C endpoint: median survival time, dose: 103.68 mg/kg/injection, schedule: Q01DX009 (ip), vehicle: saline) is 128 % of control; the T/C (T/C endpoint: median survival time, dose: 133.3 mg/kg/injection, schedule: Q01DX009 (ip), vehicle: saline) is 129 % of control; the T/C (T/C endpoint: median survival time, dose: 133.5 mg/kg/injection, schedule: Q01DX009 (ip), vehicle: saline) was 131 % of control; the T/C (T/C endpoint: median survival time, dose: 172.8 mg/kg/injection, schedule: Q01DX009 (ip), vehicle: saline) is 128 % of control; the T/C (T/C endpoint: median survival time, dose: 200.0 mg/kg/injection, schedule: Q01DX009 (ip), vehicle: saline) was 135 % of control. Besides, the survivor count (T/C endpoint: mean survival time, dose: 600.0 mg/kg/injection, schedule: Q01DX009 (ip), vehicle: saline) was 1 of 6 and 5 of 6; the survivor count (T/C endpoint: median survival time, dose: 600.0 mg/kg/injection, schedule: Q01DX009 (ip), vehicle: saline) is 6 of 10; the survivor count (T/C endpoint: median survival time, dose: 800.0 mg/kg/injection, schedule: Q01DX009 (ip), vehicle: saline) was 1 of 10.
As to `COc1cc2ccc(/C=C\[N+](=O)[O-])cc2cc1OC`, the survivor count was 3 of 6 under setting [4] and 2 of 6 (T/C endpoint: mean survival time, dose: 200.0 mg/kg/injection, schedule: Q01DX009 (ip), vehicle: water).
For the compound `O=C1OC2CC1(O)CC(O)C2O` (centres undefined), the survivor count under setting [3] is 6 of 6.
On to `Nc1ccc(N)c(N)n1`, for which the survivor count reads like this: under setting [6], 0 of 6; under setting [7], 0 of 6; under setting [8], 0 of 6.
For the compound `O=S(=O)(F)c1ccc(N=C=S)cc1`, under setting [9], the survivor count is on record as 2 of 6.
Take `O=C1NNC(=O)C2C3CCC(C3)C12` (centres undefined): the survivor count under setting [11] is given as 0 of 6.
Turning to `CCSCCCC(=O)O`, the survivor count (T/C endpoint: mean survival time, dose: 200.0 mg/kg/injection, schedule: Q04DX003 (ip), vehicle: saline sonified) is listed as 3 of 6 and the survivor count under setting [11] is 2 of 6.
Regarding `COC(=O)C1OC(Sc2ncnc3nc[nH]c23)C(O)C(O)C1O` (centres undefined), the T/C reads like this: under setting [5], 131 % of control; (T/C endpoint: median survival time, dose: 400.0 mg/kg/injection, schedule: Q01DX005 (ip), vehicle: water) 135 % of control.
Consider `CN(C)CCC(=O)c1ccco1`, for which the survivor count reads like this: (T/C endpoint: mean survival time, dose: 200.0 mg/kg/injection, schedule: Q01DX001 (ip), vehicle: saline) 3 of 6; (T/C endpoint: mean survival time, dose: 400.0 mg/kg/injection, schedule: Q01DX001 (ip), vehicle: saline) 0 of 6.
As to `O=[As](O)(CC(O)c1ccccc1)c1cccc(Cl)c1` (centres undefined), the survivor count (T/C endpoint: mean survival time, dose: 25.0 mg/kg/injection, schedule: Q04DX003 (ip), vehicle: saline with Tween-80) was 0 of 6.
`CN(C)CCN1C(=O)c2cccc3cc([N+](=O)[O-])cc(c23)C1=O`: the T/C is 128 % of control (T/C endpoint: mean survival time, dose: 3.0 mg/kg/injection, schedule: Q01DX009 (ip), vehicle: saline with Tween-80); 128 % of control (T/C endpoint: median survival time, dose: 6.0 mg/kg/injection, schedule: Q01DX009 (ip), vehicle: saline with Tween-80); 132 % of control (T/C endpoint: median survival time, dose: 12.0 mg/kg/injection, schedule: Q01DX009 (ip), vehicle: saline with Tween-80). Moreover, the survivor count (T/C endpoint: mean survival time, dose: 12.0 mg/kg/injection, schedule: Q01DX009 (ip), vehicle: saline with Tween-80) was 6 of 6; the survivor count (T/C endpoint: mean survival time, dose: 24.0 mg/kg/injection, schedule: Q01DX009 (ip), vehicle: saline with Tween-80) is listed as 6 of 6; the survivor count (T/C endpoint: mean survival time, dose: 24.0 mg/kg/injection, schedule: Q01DX009 (ip), vehicle: saline) is 6 of 6.
With `CCCCCCCCCC[N+]1(C)CCC[N+](C)(CCCCCCCCCC)CC1` (centres undefined), the survivor count (T/C endpoint: mean survival time, dose: 50.0 mg/kg/injection, schedule: Q01DX001 (ip), vehicle: saline with Tween-80) is given as 1 of 6.
On to `O=C1CCCC2C3CC(CN12)C1CCCCN1C3` (centres undefined), for which the survivor count is 3 of 6 under setting [7] and 0 of 6 under setting [8].
Take `O=NN1CCOC1=NCCCl`: the survivor count is, setting by setting: (T/C endpoint: mean survival time, dose: 400.0 mg/kg/injection, schedule: Q01DX001 (ip), vehicle: water) 0 of 6; (T/C endpoint: mean survival time, dose: 800.0 mg/kg/injection, schedule: Q01DX001 (ip), vehicle: water) 0 of 6.
In the case of `COc1ccc2c(c1)CCCC2=O`, the survivor count under setting [10] is reported as 0 of 6.

Source of the values: PubChem BioAssay AID256 (DTP/NCI, 2004).
